PubChem BioAssay AID652272 | Drosophila RNAi Screening Center | 2013
In all, the deposit lists about 21,000 reagents; this is a random part of those that have a named target and a result. In the full data, 503 (2.4%) are marked active. 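Raw plate light values, not normalised; calls rest on replicate z-scores that were not deposited; hits include reporter decreases as well as increases.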 A plus sign joins genes that one reagent is predicted to hit. No sequences are given here. Not given: the amount of reagent, the time to read-out.

- Aim: 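Genome-wide knock-down search for components of Hedgehog signalling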 (primary screen)
- Cells: Drosophila clone 8 (Cl8) cells
- Knock-down reagent: long dsRNA against Drosophila genes
- Detection: 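Firefly light from a Hedgehog-responsive ptc promoter reporter and Renilla reference light, both read on a plate reader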
- Reading the numbers: firefly Hh reporter signal: higher = more ptc reporter light; Renilla reference signal: higher = more Renilla control light
- Hit rule: 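Hit when the z-score averaged over two replicates is under -2 or over +3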
- Calls: active = hit: reporter lowered or raised; inactive = not a hit

target gene	dsRNA	firefly Hh reporter signal, replicate 1	firefly Hh reporter signal, replicate 2	firefly Hh reporter signal, replicate 3	Renilla reference signal, replicate 1	Renilla reference signal, replicate 2	outcome
Ip259	DRSC03352	52375	30045		2954	1890	inactive
Alp9	DRSC10486	88091	1.12e5		3904	4071	inactive
Ir48b	DRSC06320	1.18e5	81912		2944	6048	inactive
CG32762	DRSC18298	1.21e5	5.92e5	2.82e5	3427	4272	inactive
CG13728	DRSC10056	94934			4512	2843	inactive
Dora	DRSC19614	49500	1.57e5		1352	6922	inactive
Dora	DRSC19781	1.14e5	2.86e5		2620	13436	inactive
Dora	DRSC20034	52810	1.20e5		1593	6673	inactive
Dora	DRSC20035	46386	90304		1211	4560	inactive
mRpL13	DRSC02076	91974	86928		2522	6635	inactive
Lpin	DRSC07241	75017	46501		2855	2048	inactive
mthl2	DRSC10287	47047	52448		4999	3600	inactive
mRpL35	DRSC14586	5.58e5	1.69e5		29043	17177	inactive
Syngr	DRSC06003	94295	66224		2592	5819	inactive
alpha-Catr	DRSC04669	97603	46576		2361	4100	inactive
zuc	DRSC02160	1.14e5	91232		4897	4005	inactive
Osi13	DRSC12281	81024	85938		3125	2465	inactive
CG8478	DRSC16427	92172	1.53e5		2426	4336	inactive
CG15563	DRSC15101	1.89e5	97024		6547	853	inactive
CG32564	DRSC19933	78784	2.98e5		1200	11385	inactive
CG30466	DRSC05556	1.13e5	2.43e5		8489	9753	inactive
CG15330	DRSC18014	64448	2.22e5		2322	8279	inactive
Mlc2	DRSC16741	69024	59379		2561	3251	active
TfIIA-S-2	DRSC17791	86155	2.53e5		2016	9974	inactive
Pglym87	DRSC15252	1.54e5	99639		6688	4167	inactive
Ctr1A	DRSC18336	91457	2.95e5		3276	9955	inactive
CG14177 (retired record)	DRSC10176	32187	95014	90097	8824	6615	inactive
Tbcc	DRSC00223	4.33e5	2.28e5		22323	9992	inactive
Jon65Ai	DRSC09731	63344	73912		7498	5833	inactive
asRNA:CR43433 + Rbp6	DRSC09464	2.86e5			6249		inactive
PGRP-SC1a	DRSC06482	98121	51239		2184	4130	inactive
CysRS	DRSC05948	1.59e5	7.54e5	1.20e5	5996	42374	inactive
sage	DRSC14580	4.96e5	89985		3776	3776	inactive
msl-1	DRSC03573	63218	45005		1239	3784	inactive
Ero1L	DRSC08660	1.09e5	56578		4524	2400	inactive
scramb1	DRSC09724	48184	88838	56882	7206	3472	inactive
scramb1	DRSC10667	59081	75301	71192	6660	4259	inactive
scramb1	DRSC10668	48952	61061	50584	5181	3424	inactive
Cpr76Bd	DRSC11063	1.19e5	1.37e5		4233	3845	inactive
Drat	DRSC06600	90089	60617		2884	1858	inactive
CG8012	DRSC10951	46033	94864		2753	7092	inactive
CG6304	DRSC02948	56033	38844		2666	1700	inactive
rush	DRSC18568	1.35e5	1.12e5		2365	3520	inactive
dod	DRSC20577	86397	3.18e5		2027	15764	inactive
Myo31DF	DRSC03376	1.55e5	2.15e5		6166	7543	inactive
Pat1	DRSC17750	95616	72701		2468	1773	inactive
CG7728	DRSC10907	69108	41268		3376	2305	inactive
ZnT35C	DRSC01959	1.31e5	55643		3204	4951	inactive
CG8939	DRSC20127	92506	60540		3113	1861	inactive
Cpr49Ad	DRSC07284	1.15e5	76391		2949	6161	inactive
rdgBbeta	DRSC07672	1.37e5	73965		3876	5296	inactive
CG9592	DRSC11078	80311			3701	2227	inactive
CG10477	DRSC09732	60541	61584		5877	4632	inactive
CG5104	DRSC11765	1.13e5	89751		4185	3046	inactive
Jhbp11	DRSC15183	62374	1.06e5		1716	3403	inactive
brat	DRSC03497	89030	79142		4256	3622	inactive
mRpS18A	DRSC14369	44554	77300		1492	1830	inactive

Taken from above.
Under “Renilla reference signal, replicate 2”, Dora [DRSC20035] shows 4560
CG10477 [DRSC09732], outcome = inactive
Entry for Osi13 [DRSC12281] in “Renilla reference signal, replicate 2”: 2465
Value of Myo31DF [DRSC03376] in “Renilla reference signal, replicate 1”: 6166
Under “Renilla reference signal, replicate 2”, CG13728 [DRSC10056] is entered as 2843
